Results: publication doi:10.1101/2025.03.14.642698
Results are given in words; binding and its absence hold for the method and conditions named. Binding seen in cells or lysates may run through a third protein. A result given as binding can be weak or reduced; the word gives no strength. Tags and fused reporters may be left off the sequences shown.

Sequences of proteins named here, by UniProt entry; tags and fusion partners are left off. A change or cut given only in a name is not applied to a line headed by its entry.
UniProt P25587: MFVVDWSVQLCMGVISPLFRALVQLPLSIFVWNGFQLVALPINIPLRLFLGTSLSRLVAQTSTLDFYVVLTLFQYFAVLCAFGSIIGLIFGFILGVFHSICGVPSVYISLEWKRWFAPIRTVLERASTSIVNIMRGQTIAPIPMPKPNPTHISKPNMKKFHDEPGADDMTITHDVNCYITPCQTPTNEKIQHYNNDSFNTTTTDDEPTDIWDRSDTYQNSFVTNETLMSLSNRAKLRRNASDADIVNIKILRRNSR

B1: Ldo45-HA, endogenously tagged (protein, UniProt P40218 1-412)
chain: MAARNRRKNNKKKSLLVTSAAQEKNATYVLVAEELHKKTIDLNMGTETPLTENHENPIPAKEFKHQQKLEPIDEHDDGEDELSIKFKSMTKSSGPITEAEVQKLLLSYAFTSAAIQEDENEKESRHYPIKPPSPSASSLSAYFQSFVEKCKQVFYNFSLQTVEKLNALQNSLYEVFWIIFIYLNYWFPNVGDYVSNTFGQQDSIIIRISLSKSHFRALREKSSQKVQQAVKNIYFCFQEKPYLTAFKVSFAIGLVIPCSLLFLIMVSTATFFFFVYLTLFVVIGFFSSLFIIPLLGISFVFAIGVVSFGFCSNMSFKMAQLIYVRADAFLKKVLDKMALQTQPAQLQEPQEPLSTLRPVSNPTIPSPLRQTARPSKFVTEEDVIFEPVSAQSAIARSLETTANKAGNKFQLS
B2: Ldo16-HA, endogenously tagged (protein, UniProt P40219 1-148)
chain: MVSTATFFFFVYLTLFVVIGFFSSLFIIPLLGISFVFAIGVVSFGFCSNMSFKMAQLIYVRADAFLKKVLDKMALQTQPAQLQEPQEPLSTLRPVSNPTIPSPLRQTARPSKFVTEEDVIFEPVSAQSAIARSLETTANKAGNKFQLS

Biological target: Ldb16 ΔH-FLAG, genomically expressed (S. cerevisiae) (UniProt P25587)
Assay: co-IP

Binder	binding
B1	binds
B2	binds
